Laboratory results reported in patent US20050272050A1 (published 2005).
No constants are given. Whether binding was seen depends on the method and setting. Some entries that bind do so weakly or less than the wild type.

Protein sequences, listed by entry. Tags and fused reporters are not part of them. Residues count along the entry.
UniProt P29965, residues 116-261: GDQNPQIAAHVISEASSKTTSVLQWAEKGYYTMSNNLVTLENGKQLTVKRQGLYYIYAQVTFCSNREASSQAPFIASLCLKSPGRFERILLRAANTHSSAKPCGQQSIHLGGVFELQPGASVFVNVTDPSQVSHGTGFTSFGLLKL

Assays:
[1] = biological target: CD154 ligand (ALX-522-015) (UniProt P29965); assay: competition ELISA on plate-held CD154 (figure legend)
[2] = biological target: CD154 ligand (ALX-522-015) (UniProt P29965); assay: competition ELISA on plate-held CD154, competitor of biotinylated WT CD40
[3] = biological target: CD154 ligand (ALX-522-015) (UniProt P29965); assay: competition ELISA on plate-held CD154
[4] = biological target: CD154 ligand (ALX-522-015) (UniProt P29965); assay: ELISA, CD40 variant bound to the plate, biotinylated CD154 added, dose-response

Measured: binding

B1: CD40 NJ3 splice variant (receptor)
chain: EPPTACREKQYLINSQCCSLCQPGQKLVSDCTEFTETECLPCGESEFLDTWNRETHCHQHKYCDPNLGLRVQQKGTSETDTICTCEEGWHCTSEACESCVLHRSCSPGFGVKQIATGVSDTICEPCPVGFFSNVSSAFEKCHPWTSCETKDLVVQQAGTNKTDVVCGESWTMGPGESLGRSPGSAESPGGDPHHLRDPVCHPLGAGLYQKGGQEANQ
notes: For ELISA and FACS it was expressed non-fused with baculovirus, secreted and purified from the supernatant on a G28-5 column; also called CD40 NJ3 variant; CD40 variant NJ3
binds: [1] | [2]

B2: CD40 NJ1 splice variant (receptor)
chain: EPPTACREKQYLINSQCCSLCQPGQKLVSDCTEFTETECLPCGESEFLDTWNRETHCHQHKYCDPNLGLRVQQKGTSETDTICTCEEGWHCTSEACESCVLHRSCSPGFGVKQIATGVSDTICEPCPVGFFSNVSSAFEKCHPWTSCETKDLVVQQAGTNKTDVVCGESWTMGPGESLGRWELKGEMRHTGTLDGKKGRGGSLGVWYHSSATYLGSLGKSLPLS
notes: For ELISA and FACS it was expressed non-fused with baculovirus, secreted and purified from the supernatant on a G28-5 column; also called CD40 NJ1 variant; CD40 variant NJ1
binds: [3] | [1] | [2] | [4]
